Results reported in paper PMC9346003.
These are yes or no findings as the source states them, for the method shown. In cells and extracts the contact can be indirect. Some binding calls cover weakened binding; strength is not graded here. Tags and fused reporters may be left off the sequences shown.

Target: T1, myc-TAK1 1-606aa full length (UniProt O43318)
T1 sequence: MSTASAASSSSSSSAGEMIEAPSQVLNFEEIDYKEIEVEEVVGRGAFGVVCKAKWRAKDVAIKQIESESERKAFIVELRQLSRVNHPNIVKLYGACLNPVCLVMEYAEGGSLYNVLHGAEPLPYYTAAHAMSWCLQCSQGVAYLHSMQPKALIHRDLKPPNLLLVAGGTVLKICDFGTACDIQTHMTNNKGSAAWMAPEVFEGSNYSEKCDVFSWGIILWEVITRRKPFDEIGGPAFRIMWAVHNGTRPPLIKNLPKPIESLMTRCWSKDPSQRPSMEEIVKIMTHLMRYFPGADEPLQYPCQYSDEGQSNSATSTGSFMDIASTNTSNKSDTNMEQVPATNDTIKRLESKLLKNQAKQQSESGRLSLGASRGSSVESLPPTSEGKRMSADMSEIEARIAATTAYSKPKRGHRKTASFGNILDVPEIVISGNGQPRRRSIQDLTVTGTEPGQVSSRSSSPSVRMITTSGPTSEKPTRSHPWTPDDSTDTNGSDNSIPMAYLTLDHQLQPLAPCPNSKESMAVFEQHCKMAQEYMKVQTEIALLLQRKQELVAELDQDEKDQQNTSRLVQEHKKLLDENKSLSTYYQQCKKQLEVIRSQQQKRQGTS
Assay: co-IP; 293T cells transfected with vector control or Flag-GPX4 and Myc-TAK1 for 48 h; Myc-IP; more TAB1 with TAK1 when GPX4 was overexpressed

- binding: binds
B1: TAB1, endogenous in 293T cells (protein, UniProt Q15750 1-504)
chain: MAAQRRSLLQSEQQPSWTDDLPLCHLSGVGSASNRSYSADGKGTESHPPEDSWLKFRSENNCFLYGVFNGYDGNRVTNFVAQRLSAELLLGQLNAEHAEADVRRVLLQAFDVVERSFLESIDDALAEKASLQSQLPEGVPQHQLPPQYQKILERLKTLEREISGGAMAVVAVLLNNKLYVANVGTNRALLCKSTVDGLQVTQLNVDHTTENEDELFRLSQLGLDAGKIKQVGIICGQESTRRIGDYKVKYGYTDIDLLSAAKSKPIIAEPEIHGAQPLDGVTGFLVLMSEGLYKALEAAHGPGQANQEIAAMIDTEFAKQTSLDAVAQAVVDRVKRIHSDTFASGGERARFCPRHEDMTLLVRNFGYPLGEMSQPTPSPAPAAGGRVYPVSVPYSSAQSTSKTSVTLSLVMPSQGQMVNGAHSASTLDEATPTLTNQSPTLTLQSTNTHTQSSSSSSDGGLFRSRPAHSLPPGEDGRVEPYVDFAEFYRLWSVDHGEQSVVTAP
